Results deposited as PubChem BioAssay AID1224828 (NIAID, 2016)
Screen: 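Knock-downs that increase or decrease LPS-induced p65 nuclear translocation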 (primary screen). Cells: mouse RAW264.7 G9 macrophage reporter cells (GFP-p65, Tnf promoter-mCherry). Reagents: siRNA pool against mouse genes, 100 nM. Duration: 2 days siRNA transfection, then 40 min LPS before fixation. Conditions: LPS (Salmonella minnesota R595) at 10 ng/ml. Measurement: 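Microscopy ratio of nuclear to perinuclear-ring GFP-p65 signal, scaled to the plate median; gene score is the average of two replicate robust z-scores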. Scale: p65 translocation robust z-score: higher = more nuclear NF-kappaB p65 after LPS than the plate median; nuclear/cytoplasmic p65 ratio: higher = more nuclear NF-kappaB p65. Rule for the call: 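Active if robust z is above 3.3 (negative regulators) or below -1.56, the Tlr4 control median (positive regulators); activity score 50 or more; control wells not called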. Meaning of the calls: active = hit (p65 shift raised or lowered); inactive = no clear change.
Shown is one part, drawn at random, of about 17,000 reagents. 762 of them (4.5%) were called active. 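Active calls include both raised and lowered p65 entry, mostly lowered; wells with fewer than 50 cells lack a z-score.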 Raw values are not corrected between plates.

| target | p65 translocation robust z-score | nuclear/cytoplasmic p65 ratio, rep 1 | nuclear/cytoplasmic p65 ratio, rep 2 | low cell count flag | outcome |
| --- | --- | --- | --- | --- | --- |
| Ubb (GeneID 22187) | -0.93 | 1.37 | 1.38 | enough cells to score | inactive |
| Pla2g4e (GeneID 329502) | -1.01 | 1.22 | 1.2 | enough cells to score | inactive |
| C3 (GeneID 12266) | -0.83 | 1.47 | 1.47 | enough cells to score | inactive |
| Ndufa6 (GeneID 67130) | -0.62 | 1.78 | 1.42 | enough cells to score | inactive |
| Prss35 (GeneID 244954) | -0.65 | 1.32 | 1.33 | enough cells to score | inactive |
| Fmc1 (GeneID 66117) | 0.64 | 1.64 | 1.53 | enough cells to score | inactive |
| Pomc (GeneID 18976) | -1.15 | 1.33 | 1.27 | enough cells to score | inactive |
| Mpg (GeneID 268395) | 0.3 | 1.5 | 1.37 | enough cells to score | inactive |
| Ggt5 (GeneID 23887) | -0.64 | 1.41 | 1.45 | enough cells to score | inactive |
| Ankmy1 (GeneID 241158) | – | 1.18 | 1.46 | fewer than 50 cells per well; well left out of scoring | inactive |
| Cox11 (GeneID 69802) | 1.49 | 1.73 | 1.94 | enough cells to score | inactive |
| B230317F23Rik (GeneID 320383) | -0.59 | 1.49 | 1.45 | enough cells to score | inactive |
| Hmbox1 (GeneID 219150) | -0.17 | 1.49 | 1.51 | enough cells to score | inactive |
| Prol1 (GeneID 17830) | 0.81 | 1.86 | 1.76 | enough cells to score | inactive |
| Itga7 (GeneID 16404) | 1.84 | 1.68 | 1.66 | enough cells to score | inactive |
| Med22 (GeneID 20933) | – | 1.34 | 1.29 | fewer than 50 cells per well; well left out of scoring | inactive |
| Accs (GeneID 329470) | – | 1.44 | 1.79 | fewer than 50 cells per well; well left out of scoring | inactive |
| Slc6a20b (GeneID 22599) | 0.5 | 1.83 | 1.31 | enough cells to score | inactive |
| Adss2 (GeneID 11566) | -0.54 | 1.5 | 1.58 | enough cells to score | inactive |
| Rsl1d1 (GeneID 66409) | 0.57 | 1.66 | 1.54 | enough cells to score | inactive |
| Ap2b1 (GeneID 71770) | -0.88 | 1.5 | 1.48 | enough cells to score | inactive |
| Ctxn1 (GeneID 330695) | – | 1.19 | 1.56 | fewer than 50 cells per well; well left out of scoring | inactive |
| Ifna2 (GeneID 15965) | 0.31 | 1.47 | 1.42 | enough cells to score | inactive |
| Cdkal1 (GeneID 68916) | 0.72 | 1.54 | 2.08 | enough cells to score | inactive |
| Stc2 (GeneID 20856) | -0.74 | 1.37 | 1.11 | enough cells to score | inactive |
| Dna2 (GeneID 327762) | -1.15 | 1.4 | 1.22 | enough cells to score | inactive |
| Ranbp3 (GeneID 71810) | 0.57 | 1.71 | 1.69 | enough cells to score | inactive |
| Fam184b (GeneID 58227) | 1.52 | 1.55 | 1.74 | enough cells to score | inactive |
| Piezo2 (GeneID 667742) | 0.71 | 1.5 | 1.67 | enough cells to score | inactive |
| Slc25a3 (GeneID 18674) | -0.86 | 1.2 | 1.23 | enough cells to score | inactive |
| Kcnma1 (GeneID 16531) | -0.14 | 1.48 | 1.34 | enough cells to score | inactive |
| Slc36a2 (GeneID 246049) | – | 1.65 | 1.29 | fewer than 50 cells per well; well left out of scoring | inactive |
| Insig1 (GeneID 231070) | -0.94 | 1.29 | 1.32 | enough cells to score | inactive |
| Stk25 (GeneID 59041) | 1.95 | 1.99 | 1.64 | enough cells to score | inactive |
| Ywhag (GeneID 22628) | 0.02 | 1.54 | 1.45 | enough cells to score | inactive |
| Tnfrsf21 (GeneID 94185) | -0.38 | 1.37 | 1.56 | enough cells to score | inactive |
| Rbm42 (GeneID 68035) | – | 1.54 | 1.5 | fewer than 50 cells per well; well left out of scoring | inactive |
| Hspg2 (GeneID 15530) | -0.08 | 1.57 | 1.39 | enough cells to score | inactive |
| Mrpl54 (GeneID 66047) | 1.27 | 1.97 | 1.8 | enough cells to score | inactive |
| Capn1 (GeneID 12333) | -0.32 | 1.52 | 1.61 | enough cells to score | inactive |
| Lancl2 (GeneID 71835) | 1.36 | 1.65 | 1.7 | enough cells to score | inactive |
| Krtap4-7 (GeneID 76444) | 1.28 | 1.39 | 1.59 | enough cells to score | inactive |
| Csnk2a2ip (GeneID 224291) | 2.03 | 1.86 | 2.16 | enough cells to score | inactive |

Copied from the list:
Under “outcome”, Lancl2 (GeneID 71835) reads inactive
Under “nuclear/cytoplasmic p65 ratio, rep 2”, Piezo2 (GeneID 667742) shows 1.67
Insig1 (GeneID 231070), low cell count flag = enough cells to score
For “nuclear/cytoplasmic p65 ratio, rep 2”, Ggt5 (GeneID 23887) is entered as 1.45
Fam184b (GeneID 58227), nuclear/cytoplasmic p65 ratio, rep 1 → 1.55
Ctxn1 (GeneID 330695), nuclear/cytoplasmic p65 ratio, rep 2 = 1.56

The list goes on.
| target | p65 translocation robust z-score | nuclear/cytoplasmic p65 ratio, rep 1 | nuclear/cytoplasmic p65 ratio, rep 2 | low cell count flag | outcome |
| --- | --- | --- | --- | --- | --- |
| Plaat5 (GeneID 66727) | 3.16 | 1.66 | 1.66 | enough cells to score | inactive |
| Or13c3 (GeneID 258821) | -1.13 | 1.46 | 1.26 | enough cells to score | inactive |
| Bmf (GeneID 171543) | – | 1.12 | 1.21 | fewer than 50 cells per well; well left out of scoring | inactive |
| Npy5r (GeneID 18168) | 1.83 | 1.67 | 1.95 | enough cells to score | inactive |
| Plxnb3 (GeneID 140571) | -0.28 | 1.49 | 1.34 | enough cells to score | inactive |
| Hoxc13 (GeneID 15422) | 0.31 | 1.45 | 1.44 | enough cells to score | inactive |
| St8sia5 (GeneID 225742) | -0.2 | 1.42 | 1.23 | enough cells to score | inactive |
| Cenpc1 (GeneID 12617) | -0.61 | 1.38 | 1.3 | enough cells to score | inactive |
| Mup1 (GeneID 17840) | 0.72 | 1.86 | 1.74 | enough cells to score | inactive |
| Tbc1d10c (GeneID 108995) | 1.41 | 1.54 | 1.04 | enough cells to score | inactive |
| Dact1 (GeneID 59036) | -0.64 | 1.39 | 1.28 | enough cells to score | inactive |
| Or4b12 (GeneID 258789) | 1.64 | 1.75 | 1.73 | enough cells to score | inactive |
| Rep15 (GeneID 66532) | 1.39 | 1.54 | 1.43 | enough cells to score | inactive |
| Cep135 (GeneID 381644) | -0.22 | 1.45 | 1.44 | enough cells to score | inactive |
| Capns1 (GeneID 12336) | -1.4 | 1.41 | 1.4 | enough cells to score | inactive |
| Hopx (GeneID 74318) | -3.03 | 1.24 | 1.06 | enough cells to score | active |
| Vps28 (GeneID 66914) | -0.55 | 1.32 | 1.16 | enough cells to score | inactive |
| Fam178b (GeneID 381337) | -0.29 | 1.27 | 1.48 | enough cells to score | inactive |
| Airn (GeneID 104103) | 0.67 | 1.39 | 1.66 | enough cells to score | inactive |
| Tmem165 (GeneID 21982) | – | 0 | 1.38 | fewer than 50 cells per well; well left out of scoring | inactive |
| Sec22b (GeneID 20333) | -0.75 | 1.48 | 1.41 | enough cells to score | inactive |
| Mpv17 (GeneID 17527) | -0.2 | 1.96 | 1.38 | enough cells to score | inactive |
| Gpr65 (GeneID 14744) | – | 1.15 | 1.39 | fewer than 50 cells per well; well left out of scoring | inactive |
| Tmed9 (GeneID 67511) | -1.09 | 1.22 | 1.12 | enough cells to score | inactive |
| AU014748 | 0.89 | 1.55 | 1.82 | enough cells to score | inactive |
| Ttc39c (GeneID 72747) | – | 1.36 | 1.26 | fewer than 50 cells per well; well left out of scoring | inactive |
| Hdac3 (GeneID 15183) | -0.81 | 1.37 | 1.23 | enough cells to score | inactive |
| Kit (GeneID 16590) | 0.23 | 1.74 | 1.4 | enough cells to score | inactive |
| Unkl (GeneID 74154) | -0.58 | 1.42 | 1.5 | enough cells to score | inactive |
| Tpgs1 (GeneID 110012) | – | 1.04 | 1.35 | fewer than 50 cells per well; well left out of scoring | inactive |
| Daam1 (GeneID 208846) | -0.07 | 1.55 | 1.28 | enough cells to score | inactive |
| Lhx9 (GeneID 16876) | 1.47 | 1.93 | 1.78 | enough cells to score | inactive |
